Values from PubChem BioAssay AID1259405 (NCATS, 2018)
Here is one part, drawn at random, of about 50,000 deposited reagents. Of all reagents, about 4,000 (8%) were called active. 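Mouse siRNA library applied to hamster cells; one well for each siRNA.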 The numbers tell different reagents against one gene apart. Not all columns of the deposit are shown. Reagent sequences are not shown.

Test: 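Mouse-designed siRNAs used to find CHO productivity engineering targets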 (primary screen)
Cells: Chinese hamster CHO-K1 ovary cells with stable secreted eGFP expression
Reagent: single siRNA against mouse genes, 0.8 pmol siRNA per well (2 µl of 400 nM stock)
Time to read-out: 3 days
Measurement: 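Per-well intracellular GFP measured by laser scanning cytometry, plus viability from ATP luminescence, each relative to plate median of non-targeting control wells, in %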
Direction: GFP, % of control: higher = more GFP per well, higher productivity
Active means: 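a knock-down is called active if GFP reaches 120% or more of non-targeting control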

GFP, % of control, by gene symbol and reagent
Eif2b2 (eukaryotic translation initiation factor 2B, subunit 2 beta): #1 86.2 inactive; #2 79.1 inactive; #3 63.5 inactive
Nrl (neural retina leucine zipper gene): #1 58.5 inactive; #2 65.8 inactive; #3 57.6 inactive
Ankrd22 (ankyrin repeat domain 22): #1 53.4 inactive; #2 56.5 inactive; #3 82.5 inactive
Mylk (myosin, light polypeptide kinase): #1 73.8 inactive; #2 61.2 inactive; #3 63.5 inactive
Pip5k1b (phosphatidylinositol-4-phosphate 5-kinase, type 1 beta): #1 70.3 inactive; #2 59.8 inactive; #3 80.9 inactive
Gkn1 (gastrokine 1): #1 79.3 inactive; #2 57 inactive; #3 91.4 inactive
Setx (senataxin): #1 58.6 inactive; #2 138 active; #3 100 inactive
Naip3 (NLR family, apoptosis inhibitory protein 3): #1 117 inactive; #2 75 inactive; #3 52.9 inactive
Fabp1 (fatty acid binding protein 1, liver): #1 82.9 inactive; #2 182 active; #3 40 inactive
Mvp (major vault protein): #1 61.8 inactive; #2 70.4 inactive; #3 63 inactive
Or10j5 (olfactory receptor family 10 subfamily J member 5): #1 66.7 inactive; #2 54.3 inactive; #3 89.1 inactive
Muc19 (mucin 19): #1 83.5 inactive; #2 92.8 inactive; #3 86.6 inactive
Nfatc1: #1 64.7 inactive; #2 54.3 inactive; #3 74.6 inactive
Abcc6 (ATP-binding cassette, sub-family C member 6): #1 82.4 inactive; #2 40.2 inactive; #3 96.3 inactive
Treml6 (triggering receptor expressed on myeloid cells-like 6): #1 174 active; #2 66.9 inactive; #3 44.4 inactive
Gjc3 (gap junction protein, gamma 3): #1 118 inactive; #2 78.2 inactive; #3 63.2 inactive
Uso1 (USO1 vesicle docking factor): #1 65.9 inactive; #2 117 inactive; #3 50.1 inactive
Defb40 (defensin beta 40): #1 58.5 inactive; #2 70.3 inactive; #3 93.3 inactive
Dach2 (dachshund family transcription factor 2): #1 72.6 inactive; #2 86.1 inactive
Dym (dymeclin): #1 98.5 inactive; #2 60.6 inactive; #3 72.8 inactive
Ly6i (lymphocyte antigen 6 family member I): #1 66.2 inactive; #2 123 active; #3 122 active
Ppp5c (protein phosphatase 5, catalytic subunit): #1 73.5 inactive; #2 73.7 inactive; #3 98.8 inactive
Ddx51 (DEAD box helicase 51): #1 89.2 inactive; #2 77 inactive; #3 35.1 inactive
Notum (notum palmitoleoyl-protein carboxylesterase): #1 86.6 inactive; #2 94.7 inactive; #3 107 inactive
Gpc6 (glypican 6): #1 70.4 inactive; #2 63.1 inactive; #3 81.8 inactive
Khnyn (KH and NYN domain containing): #1 92.1 inactive; #2 101 inactive; #3 159 active; #4 57.4 inactive; #5 87.8 inactive; #6 92.3 inactive
Slirp (SRA stem-loop interacting RNA binding protein): #1 96.8 inactive; #2 53.3 inactive; #3 52 inactive
Wdr53 (WD repeat domain 53): #1 37.9 inactive; #2 87.6 inactive; #3 64.1 inactive
Mak (male germ cell-associated kinase): #1 106 inactive
Cyp7b1 (cytochrome P450, family 7, subfamily b, polypeptide 1): #1 101 inactive; #2 58.6 inactive; #3 90.8 inactive
Cyp27a1 (cytochrome P450, family 27, subfamily a, polypeptide 1): #1 96.7 inactive; #2 58 inactive; #3 75.6 inactive
Fkbp10 (FK506 binding protein 10): #1 82.9 inactive; #2 31.8 inactive; #3 74 inactive
Gdf6 (growth differentiation factor 6): #1 66.8 inactive; #2 55.8 inactive; #3 70.4 inactive
Htr4 (5 hydroxytryptamine (serotonin) receptor 4): #1 45.5 inactive; #2 54 inactive; #3 70.9 inactive
Grb14 (growth factor receptor bound protein 14): #1 97.9 inactive; #2 84.2 inactive; #3 81.5 inactive
Haus3 (HAUS augmin-like complex, subunit 3): #1 31.5 inactive; #2 86.5 inactive; #3 180 active; #4 98.9 inactive; #5 84.5 inactive; #6 54.4 inactive

Quoted from the entries so far, 13 entries:
GFP, % of control, by gene symbol and reagent
Setx (senataxin): #3 100 inactive
Naip3 (NLR family, apoptosis inhibitory protein 3): #1 117 inactive; #2 75 inactive; #3 52.9 inactive
Fabp1 (fatty acid binding protein 1, liver): #1 82.9 inactive; #2 182 active; #3 40 inactive
Mvp (major vault protein): #1 61.8 inactive; #2 70.4 inactive; #3 63 inactive
Or10j5 (olfactory receptor family 10 subfamily J member 5): #1 66.7 inactive; #2 54.3 inactive; #3 89.1 inactive
